Results published in PubChem BioAssay AID588497 (NMMLSC, 2011).
In all, about 360,000 compounds went through this assay and about 780 (0.22%) were called active. This list was built around the results that the source calls inconclusive (neither active nor inactive); the mix of calls is not that of the screen. Rule as the data show it: active = inhibition above about 35% (passing the limit was not always enough); inconclusive = no clear call, values can overlap the other calls.

These compounds were tested on Botulinum neurotoxin type F light chain protease (Clostridium botulinum) (assay: BoNT/F light chain protease inhibitors, primary screen, biochemical, flow cytometry, MLPCN library (AID 588497; also: plate controls were buffer without enzyme for full effect and enzyme alone for no effect)). Conditions: Multiplex microsphere protease cleavage assay, at 10 µM, stronger effect = higher value.

SMILES | inhibition
Cc1ccc2nc(N(CCCN(C)C)C(=O)c3ccc(S(=O)(=O)N4CCc5ccccc5C4)cc3)sc2c1 | inconclusive: -7.1%
Nc1nc(Sc2ccc([N+](=O)[O-])cc2[N+](=O)[O-])n[nH]1 | inconclusive: -3.9%
Cc1ccc(N(CC(=O)N2CCN(c3ccccc3F)CC2)S(=O)(=O)c2c(C)noc2C)cc1 | inactive: 0.1%
NNC(=O)c1ccc(Oc2cc(Cl)cc(Cl)c2)o1 | inconclusive: -63.3%
COC(=O)c1ccccc1S(=O)(=O)Oc1ccc(-c2ccc(C(=O)O)cc2)cc1 | active: 37%
O=C(CSC1=NS(=O)(=O)c2ccccc2N1)c1ccccc1 | inconclusive: -2.6%
CCSc1nnc([C@@H](NC(=O)OC(C)(C)C)C(C)C)o1 | inconclusive: 25.4%
COc1ccc(CCN=c2c([N+](=O)[O-])nn(-c3cccc(C)c3)n2O)cc1OC | active: 40.5%
COc1ccc(NC(=O)CCC(=O)c2ccc(F)cc2)cc1 | inconclusive: 9.8%
OCC(O)C1OC(c2ccco2)OC(CO)C1O (stereo unspecified) | inactive: 3.5%
Cc1cc(C)n2nc(SCC(=O)N(CCC#N)c3ccc(F)cc3)nc2n1 | inactive: 5.3%
O=C(c1ccccc1Cl)N1CCc2ccccc2C1 | inactive: -7.4%
Cn1cccc1CC(=O)N/N=C/C=C/c1ccccc1 | inactive: 1.4%
CCOC(=O)C1=NN(c2ccc(Cl)cc2)/C(=C/C2=NCCc3cc(OC)c(OC)cc32)S1 | inconclusive: 1.3%
N#CCCn1cc(C(=O)Nc2ccc(C(=O)O)cc2)c(-c2cccc(Br)c2)n1 | inconclusive: 20.4%
Cc1cc(C)cc(C(=O)Nc2nnc(SCC(=O)NCC3CCCO3)s2)c1 (stereo unspecified) | inactive: 11%
OC(COc1ccc2c(c1)CCC2)Cn1cnc2ccccc21 (stereo unspecified) | inconclusive: -3.9%
CC(=O)c1ccc(NC(=O)c2ccccc2-c2ccccc2C(=O)O)cc1 | inconclusive: -3%
O=[N+]([O-])c1ccc(N2CCc3ccccc3C2)nc1 | inconclusive: -21.5%
CC(=O)Nc1ccc(S(=O)(=O)N2CCC(NC(=O)c3ccccc3)CC2)cc1 | inconclusive: 26.1%
COc1ccc2c(c1)C1NC(=S)NC(C)(O2)C1C(=O)Nc1ccc(C)cc1C (stereo unspecified) | active: 39.6%
O=S(=O)(c1ccc(SCc2ccc(Br)cc2)nc1)N1CCOCC1 | inconclusive: -13.5%
S=c1[nH]nc2nnc3ccccc3n12 | inconclusive: -81.3%

SMILES | inhibition
CN(CCO)c1nc2c(c(=O)n(Cc3ccc(Cl)cc3)c(=O)n2C)n1C | inconclusive: -13.8%
CC(=O)OC1CC[C@@]2(C)C(=CC(=O)C3C4CCC(OC(C)=O)[C@@]4(C)CCC32)C1 (stereo partly specified) | inconclusive: -18.9%
CC(=O)c1cccc(NC(=O)CSc2nnnn2C2CCCC2)c1 | inactive: -6.9%
Cc1cc(N/C=C(\C#N)S(=O)(=O)c2ccc(Cl)cc2)nc(C)n1 | inconclusive: 196%
COc1ccc(Cl)cc1C(=O)NC1=NCCS1 | inconclusive: -23.7%
COCCCN1C(=O)c2ccc(C(=O)NCCc3ccccc3)cc2C1=O | inconclusive: 8.9%
CC(=O)Nc1ccc(NC(=O)CN(c2cccc(C(C)=O)c2)S(C)(=O)=O)cc1 | inactive: 1.1%
COC(=O)c1ccc(COc2ccc(-c3nn[nH]n3)cc2)cc1 | active: 47.3%
Cc1ccc(S(=O)(=O)NCC(=O)N2CCc3ccccc3C2)cc1 | inconclusive: 29.3%
COc1ccc(S(=O)(=O)N2CCC(O)(c3ccc(Cl)cc3)CC2)cc1OC | inconclusive: -17.2%
Cc1c([N+](=O)[O-])c(C(=O)N2CCCC2)nn1C | inactive: -0.8%
CN(Cc1ccccc1Br)C(=O)CN1C(=O)NC2(CCCCCC2)C1=O | inactive: -5.2%
Cc1nc(SCc2ccccc2)c2oc3ccccc3c2n1 | inconclusive: 32.3%
CCCN(CCC)CC(O)COc1ccc([N+](=O)[O-])cc1 (stereo unspecified) | inconclusive: 3.6%
COc1cc(/C=N/N2CCN(c3ccccc3OC)CC2)ccc1OC(C)=O | inconclusive: -15.5%
O=C(Nc1nccs1)c1ccccc1Br | inconclusive: -6.3%
CN(C)C(=S)Nc1ccc(S(=O)(=O)N2CCCCC2)cc1 | inconclusive: -67.6%
COc1ccc2[nH]c(C(=O)N(C)c3ccc(F)cc3F)cc2c1 | inconclusive: -29.9%
COc1ccc(OC)c(NC(=O)CN2C(=O)NC(C)(c3ccc4c(c3)OCCO4)C2=O)c1 (stereo unspecified) | inactive: -9.7%
COc1ccc(C(=O)NC2CCCc3ccccc32)cc1S(=O)(=O)N1CCOCC1 (stereo unspecified) | inactive: -2.2%
Cc1ccc(/C=N/NC(=O)c2cccc(S(=O)(=O)Nc3ccccc3Cl)c2)o1 | inactive: 3.2%
O=C1NC(=O)N(CCC2=CCCCC2)C(=O)/C1=C/c1cccs1 | active: 37.2%
O=C(N/N=C/c1ccc([N+](=O)[O-])o1)c1cn2ccc3ccccc3c2n1 | inconclusive: 17.8%

Of the compounds above, 18 contain a carbonyl joined to an NH by a bond outside any ring:
SMILES | inhibition
NNC(=O)c1ccc(Oc2cc(Cl)cc(Cl)c2)o1 | inconclusive: -63.3%
CCSc1nnc([C@@H](NC(=O)OC(C)(C)C)C(C)C)o1 | inconclusive: 25.4%
COc1ccc(NC(=O)CCC(=O)c2ccc(F)cc2)cc1 | inconclusive: 9.8%
Cn1cccc1CC(=O)N/N=C/C=C/c1ccccc1 | inactive: 1.4%
N#CCCn1cc(C(=O)Nc2ccc(C(=O)O)cc2)c(-c2cccc(Br)c2)n1 | inconclusive: 20.4%
Cc1cc(C)cc(C(=O)Nc2nnc(SCC(=O)NCC3CCCO3)s2)c1 (stereo unspecified) | inactive: 11%
CC(=O)c1ccc(NC(=O)c2ccccc2-c2ccccc2C(=O)O)cc1 | inconclusive: -3%
CC(=O)Nc1ccc(S(=O)(=O)N2CCC(NC(=O)c3ccccc3)CC2)cc1 | inconclusive: 26.1%
COc1ccc2c(c1)C1NC(=S)NC(C)(O2)C1C(=O)Nc1ccc(C)cc1C (stereo unspecified) | active: 39.6%
CC(=O)c1cccc(NC(=O)CSc2nnnn2C2CCCC2)c1 | inactive: -6.9%
COc1ccc(Cl)cc1C(=O)NC1=NCCS1 | inconclusive: -23.7%
COCCCN1C(=O)c2ccc(C(=O)NCCc3ccccc3)cc2C1=O | inconclusive: 8.9%
CC(=O)Nc1ccc(NC(=O)CN(c2cccc(C(C)=O)c2)S(C)(=O)=O)cc1 | inactive: 1.1%
O=C(Nc1nccs1)c1ccccc1Br | inconclusive: -6.3%
COc1ccc(OC)c(NC(=O)CN2C(=O)NC(C)(c3ccc4c(c3)OCCO4)C2=O)c1 (stereo unspecified) | inactive: -9.7%
COc1ccc(C(=O)NC2CCCc3ccccc32)cc1S(=O)(=O)N1CCOCC1 (stereo unspecified) | inactive: -2.2%
Cc1ccc(/C=N/NC(=O)c2cccc(S(=O)(=O)Nc3ccccc3Cl)c2)o1 | inactive: 3.2%
O=C(N/N=C/c1ccc([N+](=O)[O-])o1)c1cn2ccc3ccccc3c2n1 | inconclusive: 17.8%

Some of these compounds in order of count of non-hydrogen atoms, descending:
SMILES | inhibition
Cc1ccc2nc(N(CCCN(C)C)C(=O)c3ccc(S(=O)(=O)N4CCc5ccccc5C4)cc3)sc2c1 | inconclusive: -7.1%
O=S(=O)(c1ccc(SCc2ccc(Br)cc2)nc1)N1CCOCC1 | inconclusive: -13.5%
Cc1nc(SCc2ccccc2)c2oc3ccccc3c2n1 | inconclusive: 32.3%

Carrying on.

SMILES | inhibition
COc1ccc(Sc2ccccc2CN(C)C)cc1OC | inconclusive: -7.5%
CC(C)Cc1nnc(NC(=O)CCC(=O)N2CCN(Cc3ccc(Cl)cc3)CC2)s1 | inactive: -7.5%
Cc1cc(=O)n2[nH]c(Nc3cccc(Cl)c3)nc2n1 | inconclusive: -12.7%
CCN(C[C@H]1N[C@@](CC)(C(=O)OC)[C@H]2C(=O)N(Cc3ccccc3)C(=O)[C@@H]12)S(=O)(=O)c1ccc(C(C)(C)C)cc1 | inactive: -2.9%
CCC(=O)c1cn(CC(=O)Nc2ccccc2Cl)c2ccccc12 | inconclusive: 36.2%
COc1ccc(-c2cc(=O)oc3cc(OCC(=O)NCC4CCC(C(=O)O)CC4)ccc23)cc1 (stereo unspecified) | inactive: -3.7%
CCCCN(C(=O)c1cccc(-n2cnnn2)c1)c1c(N)n(CCCC)c(=O)[nH]c1=O | inactive: -2.7%
Cc1ccc(-n2c(SCc3nnc4n3CCC4)nnc2-c2ccccc2)cc1 | inconclusive: -40.8%
NC(=O)CC1SC(N)=NC1=O (stereo unspecified) | inconclusive: 29.8%
Cc1cc(-c2nc(C)c(C(=O)NN)s2)no1 | inconclusive: 116%
COC(=O)C1(NC(=O)NC2CCCCC2)CCCCC1 | inconclusive: 168%
COc1ccc(C(=O)CN(C(=O)c2ccc(Cl)cc2)N2C(=O)C3CCCCC3C2=O)cc1 (stereo unspecified) | active: 38%
COc1ccc(Br)cc1S(=O)(=O)n1nc(C)cc1C | inconclusive: 22.2%
CC(C)[N+]1=C2C=CC=CC=C2SC12C([N+](=O)[O-])=CC(=[N+]([O-])[O-])C=C2[N+](=O)[O-] (stereo unspecified) | inconclusive: 7.1%
COc1cccc(N(CC(=O)NC2CCCCC2)C(=O)CCCC(=O)Nc2ccccn2)c1 | inactive: -0.9%
COc1cc(CNC(=O)c2cc3ccccc3oc2=O)cc(OC)c1OC | inconclusive: -41.1%
Cc1cccc(Nc2nc(N)nc(CCl)n2)c1 | inconclusive: 10.4%
CC(=O)c1sc(NC(=O)C(C)Oc2ccc3c(C)cc(=O)oc3c2)nc1C (stereo unspecified) | inactive: 4.2%
O=C(CS(=O)(=O)c1ccccc1)Nc1nnc(-c2cccs2)o1 | inactive: -3.3%
O=C(COc1ccccc1)NCCc1cnc[nH]1 | inconclusive: 10.5%
CN1c2ccc(Cl)cc2C(=O)NC1C1CC=CCC1 (stereo unspecified) | inconclusive: -37.2%
COCCNC(=O)c1ccccc1NC(=O)COc1ccccc1 | inactive: 4.1%
CC(=O)C1=C(C)OC(N)=C(C#N)C1c1cccc2ccccc12 (stereo unspecified) | inconclusive: -16.8%

SMILES | inhibition
O=C1c2ccccc2-c2nc3ccccc3n21 | inconclusive: 29.7%
Cc1ccc(NC(=O)c2ccc(S(=O)(=O)Nc3c(C)n(C)n(-c4ccccc4)c3=O)cc2)nc1 | inconclusive: -0.5%
Cn1c(SCc2ccccc2)nnc1-c1ccc(O)cc1 | inconclusive: 6.2%
COCCNC(=S)N1CCN(Cc2ccc3c(c2)OCO3)CC1 | inconclusive: 20.3%
Cc1ccc2c(CN3CCCc4ccccc43)cc(=O)oc2c1C | inconclusive: -45.2%
O=C(c1ccc(S(=O)(=O)N2CCOCC2)cc1)N1CCN(c2cccc(Cl)c2)CC1 | inactive: -4.4%
COc1cc(NC(=O)CCN2CCN(C/C=C/c3ccccc3)CC2)cc(OC)c1 | inconclusive: -12.8%
Cc1cc(-c2n[nH]c(=S)n2-c2ccccc2C)cs1 | inactive: -3.2%
O=C(NC1CCN(c2ncccn2)CC1)c1cccc(F)c1 | inconclusive: -29.2%
COC(=O)c1cc(/C=C/c2ccccc2)[nH]n1 | inconclusive: -4%
CCOC(=O)c1cccc(NC(=O)CCS(=O)(=O)c2cccc3nsnc23)c1 | inactive: 5%
CC1(C)CC(=NOC(=O)c2ccccc2)CC(C)(C)N1 | inactive: 2.7%
CCCCN(C)Cc1cc(=O)oc2cc3c(cc12)CCCC3 | inconclusive: 93.9%
Cc1cc(Cl)ccc1Oc1ncc(CN2CCN(c3ccccc3)CC2)s1 | inconclusive: -17.7%
CCCOc1ccc(-c2nnc(-c3ccco3)o2)cc1 | inactive: 1.2%
COc1ccc(Nc2oc(-c3ccc(OC)cc3)nc2C#N)cc1 | inconclusive: -36%
CCn1c(CSc2nnc(-c3ccoc3C)n2C)nc2cc(S(=O)(=O)N(C)C)ccc21 | inactive: 15.9%
COc1ccc(Br)cc1/C=N/NC(=O)Cn1nnnc1N | inconclusive: -27.2%
COCCNC(=O)CN(C(=O)CCC(=O)Nc1ccccn1)c1cc(C)ccc1C | inconclusive: 9%
COc1ccccc1N1CCN(CC(=O)c2ccc(F)cc2)CC1 | inconclusive: 50.4%
CCc1nc2ccc(C(=O)Nc3cccc(NS(C)(=O)=O)c3)cn2c1N(C=O)CCC(C)C | inactive: -1.3%
O=C(O/N=C1/CCCc2occc21)c1ccc(Cl)cc1Cl | inconclusive: -1.9%
